Results taken from the supplement of paper PMC10849652.
The other results are listed elsewhere or left out.

Amino acid sequences for entries named in this document (tags omitted). A change or cut given only in a name is not applied to a line headed by its entry.
UniProt Q96GE9: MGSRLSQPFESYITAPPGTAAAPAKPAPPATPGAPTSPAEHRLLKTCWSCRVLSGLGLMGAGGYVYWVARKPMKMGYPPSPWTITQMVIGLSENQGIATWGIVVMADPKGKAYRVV
UniProt P09622, whole entry, looked up: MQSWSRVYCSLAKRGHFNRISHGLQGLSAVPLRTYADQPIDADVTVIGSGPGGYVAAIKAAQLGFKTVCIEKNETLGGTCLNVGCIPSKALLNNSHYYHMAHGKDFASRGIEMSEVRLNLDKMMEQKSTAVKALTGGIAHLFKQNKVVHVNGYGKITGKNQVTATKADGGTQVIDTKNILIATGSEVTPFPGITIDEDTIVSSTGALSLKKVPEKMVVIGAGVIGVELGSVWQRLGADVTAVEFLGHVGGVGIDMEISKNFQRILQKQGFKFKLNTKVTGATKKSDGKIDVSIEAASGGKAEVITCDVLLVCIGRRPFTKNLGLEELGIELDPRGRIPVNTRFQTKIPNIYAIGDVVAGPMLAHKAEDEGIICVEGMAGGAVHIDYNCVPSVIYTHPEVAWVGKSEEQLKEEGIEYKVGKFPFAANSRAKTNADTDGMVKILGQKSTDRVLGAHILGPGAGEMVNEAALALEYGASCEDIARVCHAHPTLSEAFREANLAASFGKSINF
UniProt Q14689: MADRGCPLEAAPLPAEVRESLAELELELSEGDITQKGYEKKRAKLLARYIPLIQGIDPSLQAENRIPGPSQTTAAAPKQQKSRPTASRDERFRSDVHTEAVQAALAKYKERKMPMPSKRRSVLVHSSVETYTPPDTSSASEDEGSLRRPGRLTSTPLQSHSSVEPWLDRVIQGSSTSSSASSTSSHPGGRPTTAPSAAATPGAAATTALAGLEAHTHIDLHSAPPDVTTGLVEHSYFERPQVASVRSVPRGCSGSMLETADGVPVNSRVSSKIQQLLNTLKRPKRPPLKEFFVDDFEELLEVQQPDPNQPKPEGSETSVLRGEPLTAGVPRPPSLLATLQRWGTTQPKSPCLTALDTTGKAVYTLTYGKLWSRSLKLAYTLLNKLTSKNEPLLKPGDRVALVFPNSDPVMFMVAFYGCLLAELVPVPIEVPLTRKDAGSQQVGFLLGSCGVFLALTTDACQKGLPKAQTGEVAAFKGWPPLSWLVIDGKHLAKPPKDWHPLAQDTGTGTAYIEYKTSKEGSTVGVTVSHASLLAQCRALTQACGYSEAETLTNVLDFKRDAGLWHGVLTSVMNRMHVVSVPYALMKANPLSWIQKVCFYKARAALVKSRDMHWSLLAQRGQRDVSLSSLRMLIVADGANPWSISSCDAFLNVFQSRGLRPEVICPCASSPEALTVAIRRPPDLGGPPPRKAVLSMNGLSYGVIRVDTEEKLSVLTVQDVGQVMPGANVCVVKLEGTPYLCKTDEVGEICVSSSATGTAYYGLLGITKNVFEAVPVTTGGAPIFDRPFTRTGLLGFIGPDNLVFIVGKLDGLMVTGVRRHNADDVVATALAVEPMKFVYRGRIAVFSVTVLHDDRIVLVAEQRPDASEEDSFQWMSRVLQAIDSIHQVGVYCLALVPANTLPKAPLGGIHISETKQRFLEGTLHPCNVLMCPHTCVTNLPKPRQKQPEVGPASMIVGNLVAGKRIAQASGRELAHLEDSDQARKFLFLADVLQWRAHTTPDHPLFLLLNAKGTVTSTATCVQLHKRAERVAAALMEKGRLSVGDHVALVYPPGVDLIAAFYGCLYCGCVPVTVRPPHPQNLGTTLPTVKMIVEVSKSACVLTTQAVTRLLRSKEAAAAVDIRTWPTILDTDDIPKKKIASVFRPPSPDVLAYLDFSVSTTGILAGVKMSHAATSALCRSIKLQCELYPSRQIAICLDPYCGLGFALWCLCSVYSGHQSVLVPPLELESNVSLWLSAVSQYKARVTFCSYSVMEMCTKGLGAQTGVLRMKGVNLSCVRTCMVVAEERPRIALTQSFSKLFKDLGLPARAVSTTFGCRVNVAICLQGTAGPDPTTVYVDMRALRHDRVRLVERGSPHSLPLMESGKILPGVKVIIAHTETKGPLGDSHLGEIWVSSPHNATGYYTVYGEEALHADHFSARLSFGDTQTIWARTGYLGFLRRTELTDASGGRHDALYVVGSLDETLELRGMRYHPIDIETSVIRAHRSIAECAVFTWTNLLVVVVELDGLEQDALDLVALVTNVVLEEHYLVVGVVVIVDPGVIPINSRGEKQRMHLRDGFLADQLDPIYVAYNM
UniProt O75911: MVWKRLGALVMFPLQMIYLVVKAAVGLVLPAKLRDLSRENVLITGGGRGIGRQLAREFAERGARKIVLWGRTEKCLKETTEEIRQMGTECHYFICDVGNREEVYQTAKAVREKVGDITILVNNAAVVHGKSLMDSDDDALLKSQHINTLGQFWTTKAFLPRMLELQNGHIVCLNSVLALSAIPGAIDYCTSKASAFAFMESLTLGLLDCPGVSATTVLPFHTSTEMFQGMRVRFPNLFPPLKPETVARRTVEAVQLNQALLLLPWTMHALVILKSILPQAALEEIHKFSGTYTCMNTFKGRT
UniProt Q9BSY9: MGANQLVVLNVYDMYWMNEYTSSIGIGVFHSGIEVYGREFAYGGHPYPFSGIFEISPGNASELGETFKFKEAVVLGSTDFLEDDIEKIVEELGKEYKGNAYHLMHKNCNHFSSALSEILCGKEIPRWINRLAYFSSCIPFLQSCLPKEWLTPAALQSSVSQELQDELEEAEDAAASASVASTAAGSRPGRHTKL
UniProt Q9NUI1: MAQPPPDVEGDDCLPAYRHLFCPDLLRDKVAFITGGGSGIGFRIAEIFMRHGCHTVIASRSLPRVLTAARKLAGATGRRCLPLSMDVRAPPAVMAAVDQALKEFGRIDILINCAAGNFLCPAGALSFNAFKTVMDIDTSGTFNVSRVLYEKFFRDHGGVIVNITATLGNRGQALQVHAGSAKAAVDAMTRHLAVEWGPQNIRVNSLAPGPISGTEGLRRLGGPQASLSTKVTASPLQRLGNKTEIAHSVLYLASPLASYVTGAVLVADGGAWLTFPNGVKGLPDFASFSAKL
UniProt Q9NVR5: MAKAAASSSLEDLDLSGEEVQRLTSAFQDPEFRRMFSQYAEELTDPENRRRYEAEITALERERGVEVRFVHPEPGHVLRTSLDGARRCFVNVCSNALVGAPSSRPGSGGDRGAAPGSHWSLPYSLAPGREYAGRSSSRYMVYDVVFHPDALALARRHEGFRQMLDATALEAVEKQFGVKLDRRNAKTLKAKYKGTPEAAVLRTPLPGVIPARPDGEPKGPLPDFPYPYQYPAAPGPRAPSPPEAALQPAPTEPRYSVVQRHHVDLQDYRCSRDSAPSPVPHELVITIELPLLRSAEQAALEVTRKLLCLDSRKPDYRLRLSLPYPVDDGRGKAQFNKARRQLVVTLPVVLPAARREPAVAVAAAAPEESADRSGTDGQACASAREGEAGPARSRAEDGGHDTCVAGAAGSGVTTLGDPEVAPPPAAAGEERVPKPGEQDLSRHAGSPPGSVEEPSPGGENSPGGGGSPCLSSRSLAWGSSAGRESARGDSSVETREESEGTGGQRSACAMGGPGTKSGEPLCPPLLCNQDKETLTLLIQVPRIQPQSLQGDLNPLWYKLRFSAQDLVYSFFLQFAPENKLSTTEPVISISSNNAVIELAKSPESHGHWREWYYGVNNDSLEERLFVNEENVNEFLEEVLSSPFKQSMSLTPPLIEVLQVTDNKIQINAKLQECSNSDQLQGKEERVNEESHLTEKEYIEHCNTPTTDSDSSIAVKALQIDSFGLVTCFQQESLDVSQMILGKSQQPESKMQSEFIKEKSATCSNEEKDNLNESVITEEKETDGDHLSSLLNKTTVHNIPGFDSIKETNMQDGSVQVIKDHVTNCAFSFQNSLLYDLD
UniProt Q9UBM7: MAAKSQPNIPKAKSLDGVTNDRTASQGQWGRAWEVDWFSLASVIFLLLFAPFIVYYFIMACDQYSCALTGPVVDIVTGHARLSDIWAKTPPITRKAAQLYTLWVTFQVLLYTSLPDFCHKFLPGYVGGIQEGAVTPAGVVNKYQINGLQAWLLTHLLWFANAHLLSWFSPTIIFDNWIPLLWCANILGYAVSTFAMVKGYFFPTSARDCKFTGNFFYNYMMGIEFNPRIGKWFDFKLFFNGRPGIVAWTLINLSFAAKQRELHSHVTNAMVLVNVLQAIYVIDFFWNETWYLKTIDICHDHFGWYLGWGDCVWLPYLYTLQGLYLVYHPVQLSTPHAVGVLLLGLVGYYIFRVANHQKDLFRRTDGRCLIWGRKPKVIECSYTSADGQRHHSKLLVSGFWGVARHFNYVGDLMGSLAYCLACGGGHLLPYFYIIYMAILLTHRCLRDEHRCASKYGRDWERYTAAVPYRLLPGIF
UniProt O60610, whole entry, looked up: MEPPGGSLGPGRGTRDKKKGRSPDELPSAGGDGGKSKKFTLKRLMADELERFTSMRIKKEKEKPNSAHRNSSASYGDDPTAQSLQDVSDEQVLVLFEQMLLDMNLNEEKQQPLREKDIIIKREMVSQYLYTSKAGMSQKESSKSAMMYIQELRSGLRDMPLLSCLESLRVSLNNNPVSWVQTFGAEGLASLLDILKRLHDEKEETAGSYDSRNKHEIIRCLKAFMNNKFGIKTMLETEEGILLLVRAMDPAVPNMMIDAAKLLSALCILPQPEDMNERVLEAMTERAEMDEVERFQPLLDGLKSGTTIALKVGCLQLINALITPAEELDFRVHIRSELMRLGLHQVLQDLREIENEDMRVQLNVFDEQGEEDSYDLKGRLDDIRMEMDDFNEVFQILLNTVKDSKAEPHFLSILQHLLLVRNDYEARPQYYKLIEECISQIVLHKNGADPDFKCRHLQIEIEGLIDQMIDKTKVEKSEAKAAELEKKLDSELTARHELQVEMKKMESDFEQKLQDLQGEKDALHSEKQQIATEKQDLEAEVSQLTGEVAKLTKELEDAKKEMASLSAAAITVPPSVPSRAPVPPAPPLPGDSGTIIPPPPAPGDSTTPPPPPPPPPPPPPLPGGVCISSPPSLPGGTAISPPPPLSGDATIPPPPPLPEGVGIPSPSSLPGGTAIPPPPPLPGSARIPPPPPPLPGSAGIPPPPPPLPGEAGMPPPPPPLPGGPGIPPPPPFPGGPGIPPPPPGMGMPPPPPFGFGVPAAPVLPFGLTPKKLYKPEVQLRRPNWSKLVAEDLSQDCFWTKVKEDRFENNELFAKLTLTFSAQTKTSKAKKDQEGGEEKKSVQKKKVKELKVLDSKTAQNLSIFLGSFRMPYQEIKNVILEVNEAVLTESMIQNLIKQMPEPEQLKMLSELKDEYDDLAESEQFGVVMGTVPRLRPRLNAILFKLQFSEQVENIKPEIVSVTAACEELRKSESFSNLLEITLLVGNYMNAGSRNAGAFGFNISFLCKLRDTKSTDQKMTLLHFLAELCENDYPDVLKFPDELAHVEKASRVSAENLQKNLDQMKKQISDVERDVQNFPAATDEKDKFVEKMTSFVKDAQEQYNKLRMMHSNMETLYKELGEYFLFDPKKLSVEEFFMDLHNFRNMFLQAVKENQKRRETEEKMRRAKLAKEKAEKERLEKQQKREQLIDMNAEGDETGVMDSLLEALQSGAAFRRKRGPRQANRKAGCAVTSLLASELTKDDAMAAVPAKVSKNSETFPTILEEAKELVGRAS
UniProt P52429: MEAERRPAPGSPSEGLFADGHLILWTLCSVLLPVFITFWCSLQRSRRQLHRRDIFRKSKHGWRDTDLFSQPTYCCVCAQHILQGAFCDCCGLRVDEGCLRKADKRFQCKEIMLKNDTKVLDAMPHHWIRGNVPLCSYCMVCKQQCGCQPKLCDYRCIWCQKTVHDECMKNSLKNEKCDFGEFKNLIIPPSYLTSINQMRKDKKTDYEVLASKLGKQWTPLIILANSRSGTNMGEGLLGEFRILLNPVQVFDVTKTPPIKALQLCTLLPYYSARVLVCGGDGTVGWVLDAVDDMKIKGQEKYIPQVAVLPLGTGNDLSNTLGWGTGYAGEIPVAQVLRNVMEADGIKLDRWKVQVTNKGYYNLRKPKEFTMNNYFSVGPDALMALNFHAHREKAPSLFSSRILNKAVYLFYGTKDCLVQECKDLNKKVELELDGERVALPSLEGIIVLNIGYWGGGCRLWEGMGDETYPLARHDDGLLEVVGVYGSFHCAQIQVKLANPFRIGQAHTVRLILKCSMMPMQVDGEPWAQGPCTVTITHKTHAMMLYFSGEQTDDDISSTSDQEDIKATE
UniProt Q6UX07: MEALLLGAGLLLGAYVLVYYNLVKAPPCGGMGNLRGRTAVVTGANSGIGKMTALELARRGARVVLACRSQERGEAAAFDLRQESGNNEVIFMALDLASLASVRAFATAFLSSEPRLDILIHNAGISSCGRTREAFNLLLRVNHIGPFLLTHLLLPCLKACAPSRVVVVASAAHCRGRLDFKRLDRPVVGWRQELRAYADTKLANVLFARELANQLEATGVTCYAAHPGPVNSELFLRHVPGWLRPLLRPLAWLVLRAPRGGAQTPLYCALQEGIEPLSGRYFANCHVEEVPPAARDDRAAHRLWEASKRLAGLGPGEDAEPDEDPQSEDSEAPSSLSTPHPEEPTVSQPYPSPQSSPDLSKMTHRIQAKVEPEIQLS

Tests used:
Assay in all cases: log2 fold change, soluble protein after heating vs DMSO (PISA); higher = thermal stabilisation; K562 cells, 10 uM, 30 min; active = over 0.2 and 3.5 SD of the protein, either way, in both replicates (recomputed)
[1] = compound: CS(=O)(=O)c1ccc(-c2cnc(N)c(C(=O)Nc3ccccc3)n2)cc1
Outline: (§1)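 K562 cells at 2×10^6 cells/mL were given 10 μM compound for 30 min. Aliquots then went through 3 min of heating across 48°C-58°C, were pooled, and were extracted in PBS with 0.5% NP-40 at 4°C, and the supernatant after 21,000xg for 90 min was quantified by TMTpro 16plex LC-MS/MS with channel sums equalised. Thermal stability relative to control samples, from duplicates, is given as log2 fold change.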

crizotinib = compound: C[C@@H](Oc1cc(-c2cnn(C3CCNCC3)c2)cnc1N)c1c(Cl)ccc(F)c1Cl [crizotinib]
Outline: as §1

[2] = compound: C[C@@H]1COCCN1C2=NC(=NC(=C2)C3(CC3)S(=O)(=O)C)C4=C5C=CNC5=CC=C4
Outline: as §1

gandotinib = compound: Cc1cc(Nc2cc(CN3CCOCC3)c3nc(C)c(Cc4ccc(Cl)cc4F)n3n2)n[nH]1 [gandotinib]
Outline: as §1

doramapimod = compound: Cc1ccc(-n2nc(C(C)(C)C)cc2NC(=O)Nc2ccc(OCCN3CCOCC3)c3ccccc23)cc1 [doramapimod]
Outline: as §1

bafetinib = compound: Cc1ccc(NC(=O)c2ccc(CN3CC[C@H](N(C)C)C3)c(C(F)(F)F)c2)cc1Nc1nccc(-c2cncnc2)n1 [bafetinib]
Outline: as §1

[3] = compound: Cc1cccc(CC(=O)N2CCc3c2ccc(-c2cn(C)c4ncnc(N)c24)c3F)n1
Outline: as §1

nilotinib = compound: Cc1cn(-c2cc(NC(=O)c3ccc(C)c(Nc4nccc(-c5cccnc5)n4)c3)cc(C(F)(F)F)c2)cn1 [nilotinib]
Outline: as §1

[4] = compound: Cc1nc(Nc2n[nH]c3c2CN(C(=O)N[C@H](CN(C)C)c2ccccc2)C3(C)C)c2sccc2n1
Outline: as §1

[5] = compound: Cc1ncc(-c2ccnc(Nc3ccc(S(C)(=O)=O)cc3)n2)n1C(C)C
Outline: as §1

tipifarnib = compound: Cn1cncc1[C@@](N)(c1ccc(Cl)cc1)c1ccc2c(c1)c(-c1cccc(Cl)c1)cc(=O)n2C [tipifarnib]
Outline: as §1

[6] = compound: C[C@H](C1=CC=C(C=C1)C(=O)NC2=C3C=CNC3=NC=C2)N
Outline: as §1

[7] = compound: Cc1cc(SCc2sc(-c3ccc(C(F)(F)F)cc3)nc2C)ccc1OCC(=O)O
Outline: as §1

ispinesib = compound: Cc1ccc(C(=O)N(CCCN)[C@@H](c2nc3cc(Cl)ccc3c(=O)n2Cc2ccccc2)C(C)C)cc1 [ispinesib]
Outline: as §1

dasatinib = compound: Cc1nc(Nc2ncc(C(=O)Nc3c(C)cccc3Cl)s2)cc(N2CCN(CCO)CC2)n1 [dasatinib]
Outline: as §1

[8] = compound: Cn1cc(-c2ccc3c(c2)CCN3C(=O)Cc2cccc(C(F)(F)F)c2)c2c(N)ncnc21
Outline: as §1

[9] = compound: Cn1cc(-c2ccc3nnc(C(F)(F)c4ccc5ncccc5c4)n3n2)cn1
Outline: as §1

mubritinib = compound: FC(F)(F)c1ccc(/C=C/c2nc(COc3ccc(CCCCn4ccnn4)cc3)co2)cc1 [mubritinib]
Outline: as §1

duvelisib = compound: C[C@H](Nc1ncnc2nc[nH]c12)c1cc2cccc(Cl)c2c(=O)n1-c1ccccc1 [duvelisib]
Outline: as §1

tozasertib = compound: Cc1cc(Nc2cc(N3CCN(C)CC3)nc(Sc3ccc(NC(=O)C4CC4)cc3)n2)n[nH]1 [tozasertib]
Outline: as §1

| Target | log2 fold change [1] | log2 fold change (crizotinib) | log2 fold change [2] | log2 fold change (gandotinib) | log2 fold change (doramapimod) | log2 fold change (bafetinib) | log2 fold change [3] | log2 fold change (nilotinib) | log2 fold change [4] | log2 fold change [5] | log2 fold change (tipifarnib) | log2 fold change [6] | log2 fold change [7] | log2 fold change (ispinesib) | log2 fold change (dasatinib) | log2 fold change [8] | log2 fold change [9] | log2 fold change (mubritinib) | log2 fold change (duvelisib) | log2 fold change (tozasertib) |
| --- | --- | --- | --- | --- | --- | --- | --- | --- | --- | --- | --- | --- | --- | --- | --- | --- | --- | --- | --- | --- |
| DNA2 (UniProt P51530) | inactive: 0.14 | inactive: 0.169 | inactive: -0.078 | inactive: -0.331 | inactive: 0.037 | inactive: 0.042 | inactive: 0.08 | inactive: -0.314 | inactive: -0.342 | inactive: -0.151 | inactive: 0.076 |  |  |  |  |  |  |  |  |  |
| DDX39A (UniProt O00148) | inactive: 0.062 | inactive: -0.082 | inactive: 0.079 | inactive: -0.009 | inactive: -0.069 | inactive: 0.001 | inactive: 0.014 | inactive: -0.017 | active: -0.278 | inactive: -0.218 | inactive: 0.079 | inactive: 0.002 | inactive: 0.05 | inactive: -0.064 | inactive: -0.134 | inactive: -0.018 | inactive: -0.007 | inactive: -0.182 |  |  |
| DMAC1 (UniProt Q96GE9) | inactive: 0.023 | inactive: 0.034 | inactive: 0.037 | inactive: -0.087 | inactive: 0.066 | inactive: -0.138 | inactive: -0.047 | inactive: -0.083 | inactive: 0.067 | inactive: -0.007 | inactive: -0.156 | inactive: 0.005 | inactive: -0.22 | inactive: -0.108 | inactive: 0.118 | inactive: -0.014 | inactive: 0.095 | inactive: 0.085 |  |  |
| DLD (UniProt P09622) | inactive: -0.068 | inactive: -0.023 | inactive: 0.019 | inactive: -0.02 | inactive: -0.016 | inactive: -0.028 | inactive: -0.042 | inactive: 0.034 | inactive: -0.018 | inactive: -0.066 | inactive: -0.008 | inactive: -0.042 | inactive: 0.014 | inactive: -0.083 | inactive: -0.025 | inactive: -0.04 | inactive: 0.015 | active: -0.429 |  |  |
| DNAH5 (UniProt Q8TE73) | inactive: 0.049 | inactive: 0.145 | inactive: -0.007 | inactive: 0.013 | inactive: -0.031 | inactive: -0.065 | inactive: -0.084 | inactive: -0.006 | inactive: 0.015 | inactive: -0.015 | inactive: 0.267 | inactive: -0.076 | inactive: -0.052 | inactive: 0.057 | inactive: 0.085 | inactive: 0 | inactive: -0.06 | inactive: 0.032 |  |  |
| DHX36 (UniProt Q9H2U1) | inactive: -0.071 | inactive: -0.101 | inactive: -0.062 | inactive: 0.069 | inactive: 0.051 | inactive: 0.065 | inactive: 0.015 | inactive: -0.066 | inactive: 0.052 | inactive: 0.045 | inactive: 0.002 | inactive: 0.2 | inactive: 0.045 | inactive: -0.081 | inactive: -0.01 | inactive: -0.076 | inactive: -0.059 | inactive: -0.128 |  |  |
| DIPK2A (UniProt Q8NDZ4) | inactive: -0.01 | inactive: -0.054 |  |  | inactive: -0.043 | inactive: 0.073 |  | inactive: -0.013 | inactive: -0.238 | inactive: 0.123 |  | inactive: 0.168 | inactive: -0.017 | inactive: 0.067 | inactive: 0.151 | inactive: 0.01 | inactive: 0.019 |  | inactive: 0.068 | inactive: 0.058 |
| DDX11 (UniProt Q96FC9) | inactive: 0.02 | inactive: -0.01 | inactive: -0.144 |  | inactive: 0.224 | inactive: -0.012 |  | inactive: 0.098 | inactive: 0.033 | inactive: 0.098 | inactive: 0.005 |  | inactive: 0.015 | inactive: 0.012 | inactive: 0.061 |  | inactive: -0.132 | inactive: -0.015 |  |  |
| DIP2A (UniProt Q14689) | inactive: -0.094 | inactive: 0.087 | inactive: 0.159 | inactive: 0.023 | inactive: 0.141 | inactive: -0.005 | inactive: -0.019 | inactive: 0.005 | inactive: -0.07 | inactive: 0.01 | inactive: 0.02 | inactive: -0.01 | inactive: 0.081 | inactive: 0.01 | inactive: -0.04 | inactive: 0.043 | inactive: -0.053 | inactive: 0.002 |  |  |
| DHRS3 (UniProt O75911) | inactive: 0.083 | inactive: 0.093 | inactive: 0.115 | inactive: -0.027 | inactive: -0.037 | inactive: 0.027 | inactive: 0.017 | inactive: 0.101 | inactive: -0.031 | inactive: -0.025 | inactive: 0.012 | inactive: 0.069 | inactive: -0.049 | inactive: 0.015 | inactive: 0.188 | active: 0.323 | inactive: 0.164 | inactive: 0.081 |  |  |
| DENND1B (UniProt Q6P3S1) | inactive: -0.05 | inactive: -0.028 | inactive: 0.05 |  | inactive: -0.102 | inactive: 0.001 |  | inactive: -0.365 | inactive: -0.124 | inactive: -0.039 | inactive: 0.029 | inactive: 0.024 | inactive: 0.005 |  | inactive: 0.037 | inactive: -0.005 |  | inactive: 0.038 | inactive: -0.008 |  |
| DESI2 (UniProt Q9BSY9) | inactive: -0.112 | inactive: -0.022 |  |  | inactive: -0.04 | inactive: -0.025 |  | inactive: -0.078 | inactive: -0.023 | inactive: 0.073 | inactive: 0.044 |  |  |  |  |  |  |  |  | inactive: -0.048 |
| DECR2 (UniProt Q9NUI1) | inactive: -0.027 | inactive: -0.089 | inactive: 0.062 | inactive: 0.049 | inactive: 0.05 | inactive: -0.04 | inactive: -0.116 | inactive: -0.095 | inactive: 0.012 | inactive: -0.07 | inactive: 0.056 |  | inactive: 0.097 |  | inactive: -0.03 |  |  | inactive: -0.14 | inactive: 0.023 | inactive: -0.071 |
| DNAAF2 (UniProt Q9NVR5) | inactive: 0.018 | inactive: -0.015 | inactive: -0.067 | inactive: -0.182 | inactive: 0.042 | inactive: -0.075 | inactive: 0.057 | inactive: 0.023 | inactive: 0.002 | inactive: 0 | inactive: 0.004 | inactive: 0.003 | inactive: -0.034 | inactive: 0.032 | inactive: -0.049 | inactive: -0.037 | inactive: 0.036 | inactive: 0.026 |  |  |
| DHCR7 (UniProt Q9UBM7) | inactive: -0.003 | inactive: 0.192 | inactive: -0.085 | inactive: -0.304 | inactive: 0.049 | active: 0.428 | inactive: -0.005 | inactive: -0.282 | inactive: -0.005 | inactive: 0.05 | inactive: -0.167 | inactive: 0.089 | inactive: 0.051 | inactive: -0.056 | inactive: -0.109 | inactive: 0.257 | inactive: -0.016 | inactive: 0.166 |  |  |
| DIAPH1 (UniProt O60610) | inactive: 0.047 | inactive: -0.152 | inactive: -0.054 | inactive: -0.063 | inactive: 0.135 | inactive: 0.088 | inactive: 0.057 | inactive: -0.011 | inactive: -0.197 | inactive: 0.077 | inactive: -0.077 | inactive: 0.168 | inactive: 0.125 | inactive: -0.089 | inactive: -0.055 | inactive: -0.083 | inactive: -0.035 | inactive: 0.039 |  |  |
| DGKE (UniProt P52429) | inactive: -0.001 | inactive: -0.24 |  |  | inactive: 0.016 | inactive: -0.081 |  | inactive: 0.15 | inactive: -0.215 | inactive: -0.189 | inactive: 0.185 | inactive: -0.037 |  |  |  | inactive: 0.018 |  | inactive: -0.066 |  | inactive: 0.114 |
| DNAH10 (UniProt Q8IVF4) | inactive: 0.124 | inactive: 0.135 | inactive: -0.003 | inactive: -0.136 | inactive: -0.003 | inactive: 0.062 | inactive: -0.052 | inactive: -0.092 | inactive: 0.037 | inactive: 0.043 |  | inactive: -0.055 | inactive: -0.082 |  | inactive: 0.093 | inactive: 0.102 |  | inactive: 0.154 |  |  |
| DHCR24 (UniProt Q15392) | inactive: 0.229 | inactive: 0.428 | inactive: 0.076 | inactive: -0.025 | active: 0.982 | active: 1.39 | inactive: -0.001 | inactive: -0.03 | inactive: 0.025 | inactive: 0.577 | inactive: -0.006 | inactive: 0.056 | inactive: -0.063 | inactive: -0.053 | inactive: 0.127 | inactive: 0.292 | inactive: 0.043 | inactive: 0.47 |  |  |
| DHRS13 (UniProt Q6UX07) | inactive: 0.107 | inactive: 0.127 |  | inactive: 0.064 | inactive: 0.123 |  | inactive: -0.208 | inactive: 0.197 | inactive: -0.153 | inactive: -0.106 |  | inactive: 0.058 | inactive: 0.139 | inactive: -0.034 | inactive: 0.005 | inactive: 0.021 | inactive: -0.168 | inactive: 0.049 |  |  |

Reprinted at random: two entries already listed.

| Target | log2 fold change [1] | log2 fold change (crizotinib) | log2 fold change [2] | log2 fold change (gandotinib) | log2 fold change (doramapimod) | log2 fold change (bafetinib) | log2 fold change [3] | log2 fold change (nilotinib) | log2 fold change [4] | log2 fold change [5] | log2 fold change (tipifarnib) | log2 fold change [6] | log2 fold change [7] | log2 fold change (ispinesib) | log2 fold change (dasatinib) | log2 fold change [8] | log2 fold change [9] | log2 fold change (mubritinib) | log2 fold change (duvelisib) | log2 fold change (tozasertib) |
| --- | --- | --- | --- | --- | --- | --- | --- | --- | --- | --- | --- | --- | --- | --- | --- | --- | --- | --- | --- | --- |
| DHCR7 (UniProt Q9UBM7) | inactive: -0.003 | inactive: 0.192 | inactive: -0.085 | inactive: -0.304 | inactive: 0.049 | active: 0.428 | inactive: -0.005 | inactive: -0.282 | inactive: -0.005 | inactive: 0.05 | inactive: -0.167 | inactive: 0.089 | inactive: 0.051 | inactive: -0.056 | inactive: -0.109 | inactive: 0.257 | inactive: -0.016 | inactive: 0.166 |  |  |
| DECR2 (UniProt Q9NUI1) | inactive: -0.027 | inactive: -0.089 | inactive: 0.062 | inactive: 0.049 | inactive: 0.05 | inactive: -0.04 | inactive: -0.116 | inactive: -0.095 | inactive: 0.012 | inactive: -0.07 | inactive: 0.056 |  | inactive: 0.097 |  | inactive: -0.03 |  |  | inactive: -0.14 | inactive: 0.023 | inactive: -0.071 |
